Results: the supplement of paper PMC10849652
Some of the results follow.

The chains behind the UniProt entries cited, without tags or fusion partners. Where a name states a change or a piece, a line headed by the entry shows the natural chain unless it says otherwise.
UniProt Q67FW5: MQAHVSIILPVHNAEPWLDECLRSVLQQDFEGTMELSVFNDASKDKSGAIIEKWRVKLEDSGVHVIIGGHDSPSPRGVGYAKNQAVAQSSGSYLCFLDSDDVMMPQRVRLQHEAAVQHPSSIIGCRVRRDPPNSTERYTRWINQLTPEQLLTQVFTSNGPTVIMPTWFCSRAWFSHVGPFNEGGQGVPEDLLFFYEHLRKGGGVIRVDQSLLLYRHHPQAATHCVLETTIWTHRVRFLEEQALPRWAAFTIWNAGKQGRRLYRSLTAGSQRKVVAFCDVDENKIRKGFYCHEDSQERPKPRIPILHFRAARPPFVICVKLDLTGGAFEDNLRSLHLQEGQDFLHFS
UniProt P00966: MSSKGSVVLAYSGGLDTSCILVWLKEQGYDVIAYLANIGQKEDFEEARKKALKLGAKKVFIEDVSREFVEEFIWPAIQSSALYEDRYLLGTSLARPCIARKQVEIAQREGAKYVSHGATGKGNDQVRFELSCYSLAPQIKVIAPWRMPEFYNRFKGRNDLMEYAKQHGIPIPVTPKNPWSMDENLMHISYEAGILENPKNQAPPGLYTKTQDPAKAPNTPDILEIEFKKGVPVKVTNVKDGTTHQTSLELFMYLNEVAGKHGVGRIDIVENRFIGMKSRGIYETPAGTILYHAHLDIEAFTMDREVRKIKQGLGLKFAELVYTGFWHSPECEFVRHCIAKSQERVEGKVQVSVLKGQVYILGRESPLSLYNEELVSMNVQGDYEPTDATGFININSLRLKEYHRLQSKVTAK
UniProt O14965: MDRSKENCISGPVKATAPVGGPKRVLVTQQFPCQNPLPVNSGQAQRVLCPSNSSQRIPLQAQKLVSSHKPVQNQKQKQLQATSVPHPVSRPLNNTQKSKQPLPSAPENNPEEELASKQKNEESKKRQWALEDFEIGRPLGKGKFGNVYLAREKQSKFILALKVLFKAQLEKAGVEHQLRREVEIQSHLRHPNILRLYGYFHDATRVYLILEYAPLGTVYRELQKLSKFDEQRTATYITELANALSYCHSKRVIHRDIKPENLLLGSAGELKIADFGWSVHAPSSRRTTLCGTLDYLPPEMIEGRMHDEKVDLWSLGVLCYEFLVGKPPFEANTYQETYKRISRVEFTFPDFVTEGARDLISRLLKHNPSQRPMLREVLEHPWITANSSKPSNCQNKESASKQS
UniProt Q8NBU5: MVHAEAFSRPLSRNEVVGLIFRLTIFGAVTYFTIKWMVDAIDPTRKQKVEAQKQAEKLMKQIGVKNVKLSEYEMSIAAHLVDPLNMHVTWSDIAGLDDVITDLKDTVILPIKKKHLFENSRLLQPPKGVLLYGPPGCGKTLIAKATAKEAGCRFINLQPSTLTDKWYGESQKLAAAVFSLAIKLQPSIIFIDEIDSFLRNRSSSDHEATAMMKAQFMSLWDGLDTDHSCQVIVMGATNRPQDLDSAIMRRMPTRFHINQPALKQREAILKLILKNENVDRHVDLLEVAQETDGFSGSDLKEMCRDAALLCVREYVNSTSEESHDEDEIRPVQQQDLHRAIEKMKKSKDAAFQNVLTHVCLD

Key:
Test in all cases: log2 fold change, soluble protein after heating vs DMSO (PISA); higher = thermal stabilisation; K562 lysate, 10 uM; active = over 0.2 and 3.5 SD of the protein, either way, in both replicates (recomputed)
[1] = compound: CS(=O)(=O)CCNCc1ccc(-c2ccc3ncnc(Nc4ccc(OCc5cccc(F)c5)c(Cl)c4)c3c2)o1 [lapatinib]
How it was run: (§1)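 The values are log-two fold changes in thermal stability compared with solvent controls and come from duplicates. They were obtained by TMTpro 16plex LC-MS/MS, with channel sums equalised, on the supernatant after 21,000xg for 90 min. That supernatant came from crude K562 extract at 1 mg/mL protein treated with 10 μM compound for 30 min, heated for 3 min across 48°C-58°C, pooled and brought to 0.5% NP-40 at 4°C.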

[2] = compound: CS(=O)(=O)N1CCN(Cc2cc3nc(-c4cccc5[nH]ncc45)nc(N4CCOCC4)c3s2)CC1 [pictilisib]
How it was run: as §1

[3] = compound: C[C@@H](Oc1cc(-c2cnn(C3CCNCC3)c2)cnc1N)c1c(Cl)ccc(F)c1Cl [crizotinib]
How it was run: as §1

[4] = compound: C[C@H](Nc1ncnc2nc[nH]c12)c1cc2cccc(Cl)c2c(=O)n1-c1ccccc1 [duvelisib]
How it was run: as §1

[5] = compound: Cc1ccc(-n2nc(C(C)(C)C)cc2NC(=O)Nc2ccc(OCCN3CCOCC3)c3ccccc23)cc1 [doramapimod]
How it was run: as §1

[6] = compound: Cc1ccc(NC(=O)c2ccc(CN3CC[C@H](N(C)C)C3)c(C(F)(F)F)c2)cc1Nc1nccc(-c2cncnc2)n1 [bafetinib]
How it was run: as §1

[7] = compound: Cc1cn(-c2cc(NC(=O)c3ccc(C)c(Nc4nccc(-c5cccnc5)n4)c3)cc(C(F)(F)F)c2)cn1 [nilotinib]
How it was run: as §1

[8] = compound: Cc1nc(Nc2n[nH]c3c2CN(C(=O)N[C@H](CN(C)C)c2ccccc2)C3(C)C)c2sccc2n1
How it was run: as §1

[9] = compound: Cc1nc(Nc2ncc(C(=O)Nc3c(C)cccc3Cl)s2)cc(N2CCN(CCO)CC2)n1 [dasatinib]
How it was run: as §1

[10] = compound: Cc1ncc(-c2ccnc(Nc3ccc(S(C)(=O)=O)cc3)n2)n1C(C)C
How it was run: as §1

[11] = compound: Cn1cc(-c2ccc3c(c2)CCN3C(=O)Cc2cccc(C(F)(F)F)c2)c2c(N)ncnc21
How it was run: as §1

[12] = compound: Cn1cc(CNCC2CCN(c3ncc(C(=O)NO)cn3)CC2)c2ccccc21 [quisinostat]
How it was run: as §1

[13] = compound: Cn1cncc1[C@@](N)(c1ccc(Cl)cc1)c1ccc2c(c1)c(-c1cccc(Cl)c1)cc(=O)n2C [tipifarnib]
How it was run: as §1

[14] = compound: NC(=O)Nc1cc(-c2cccc(F)c2)sc1C(=O)N[C@H]1CCCNC1
How it was run: as §1

[15] = compound: NC(=O)c1cnc(N[C@@H]2CCCC[C@@H]2N)nc1Nc1cccc(-n2nccn2)c1
How it was run: as §1

[16] = compound: NC1(c2ccc(-c3nc4ccn5c(=O)[nH]nc5c4cc3-c3ccccc3)cc2)CCC1
How it was run: as §1

[17] = compound: C[C@H](C1=CC=C(C=C1)C(=O)NC2=C3C=CNC3=NC=C2)N
How it was run: as §1

[18] = compound: Cc1cc(Nc2cc(CN3CCOCC3)c3nc(C)c(Cc4ccc(Cl)cc4F)n3n2)n[nH]1 [gandotinib]
How it was run: as §1

[19] = compound: Cc1cc(Nc2cc(N3CCN(C)CC3)nc(Sc3ccc(NC(=O)C4CC4)cc3)n2)n[nH]1 [tozasertib]
How it was run: as §1

[20] = compound: Cc1cccc(CC(=O)N2CCc3c2ccc(-c2cn(C)c4ncnc(N)c24)c3F)n1
How it was run: as §1

| Target | log2 fold change [1] | log2 fold change [2] | log2 fold change [3] | log2 fold change [4] | log2 fold change [5] | log2 fold change [6] | log2 fold change [7] | log2 fold change [8] | log2 fold change [9] | log2 fold change [10] | log2 fold change [11] | log2 fold change [12] | log2 fold change [13] | log2 fold change [14] | log2 fold change [15] | log2 fold change [16] | log2 fold change [17] | log2 fold change [18] | log2 fold change [19] | log2 fold change [20] |
| --- | --- | --- | --- | --- | --- | --- | --- | --- | --- | --- | --- | --- | --- | --- | --- | --- | --- | --- | --- | --- |
| ATP5F1B (UniProt H0YI37) | inactive: 0.087 | inactive: 0.089 | inactive: -0.763 | inactive: 0.132 | inactive: -0.066 | inactive: -0.158 | inactive: 0.162 | inactive: -0.01 | inactive: -0.036 | inactive: 0.168 | inactive: -0.18 | inactive: -1.26 | inactive: 0.128 | inactive: 0.395 | inactive: 0.337 | inactive: -0.672 | – | – | – | – |
| B3GNTL1 (UniProt Q67FW5) | inactive: 0.048 | inactive: 0.05 | inactive: -0.047 | – | inactive: 0.06 | inactive: 0.144 | – | – | – | – | – | inactive: -0.066 | – | inactive: 0.036 | inactive: 0.041 | – | inactive: -0.073 | inactive: 0.038 | inactive: 0.029 | inactive: 0.172 |
| ASS1 (UniProt P00966) | inactive: -0.032 | inactive: -0.049 | inactive: -0.023 | inactive: -0.035 | inactive: -0.01 | inactive: -0.062 | inactive: -0.027 | inactive: -0.073 | inactive: 0.092 | inactive: 0.038 | inactive: 0.074 | inactive: 0.022 | inactive: 0.032 | inactive: 0.024 | inactive: 0.002 | inactive: 0.015 | inactive: 0.006 | inactive: -0.065 | inactive: 0.019 | inactive: -0.009 |
| AURKA (UniProt O14965) | inactive: -0.101 | inactive: 0.112 | – | inactive: -0.006 | inactive: -0.061 | inactive: -0.09 | inactive: -0.065 | inactive: 0.209 | inactive: 0.226 | inactive: 0.174 | inactive: 0.027 | inactive: -0.117 | inactive: -0.088 | inactive: 0.18 | inactive: -0.04 | inactive: -0.05 | inactive: -0.071 | active: 1 | – | inactive: -0.062 |
| ATP1B1 (UniProt P05026) | inactive: -0.055 | inactive: 0.025 | inactive: 0.024 | inactive: 0.03 | inactive: -0.037 | inactive: 0.066 | inactive: -0.157 | inactive: 0.04 | inactive: 0.04 | inactive: 0.043 | inactive: 0.005 | inactive: 0.055 | inactive: -0.114 | inactive: 0.007 | inactive: -0.059 | inactive: 0.055 | inactive: 0.075 | inactive: 0.088 | – | inactive: -0.122 |
| ATAD1 (UniProt Q8NBU5) | inactive: -0.158 | inactive: 0.012 | inactive: -0.022 | inactive: -0.051 | inactive: 0.015 | inactive: -0.008 | inactive: 0.073 | inactive: -0.015 | inactive: 0.001 | inactive: -0.153 | inactive: 0.039 | inactive: -0.072 | inactive: -0.072 | inactive: -0.001 | inactive: 0.027 | inactive: -0.031 | inactive: -0.081 | active: 0.386 | inactive: 0.017 | inactive: 0.012 |
